This note sets out measurements from the supplement of paper PMC6143611.

SMILES strings stand for the structures. Counter-ions that a name gives are not always drawn. ± gives the uncertainty stated by the source. The list shows a part of the results. Plates or batches differ in their baseline, so values are only roughly comparable.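 A heat-shock-induced fluorescent stripe was set in larval rod outer segments at 6 dpf. Shedding distance ran from stripe to outer segment tip, measured by confocal stacks in about three fish per compound. Controls: 0.2% DMSO vehicle. Flagged compounds showed ≥20% change from same-week control, p < 0.001 (Dunnett test on mixed-effects models).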

This assay relates to Danio rerio larva rod photoreceptor outer segment. The assay is described as follows: rod outer segment shedding distance Ds, difference from same-week DMSO control mean; higher = less outer segment shedding. Particulars: 20 µM; treatment time: 4 days (6-10 dpf).
For `CCCCc1nc(Cl)c(CO)n1Cc1ccc(-c2ccccc2-c2nnn[nH]2)cc1` [Losartan Potassium (DuP 753)], the “rod outer segment shedding distance Ds” value came to 0.15 ± 0.24 um. Turning to `Nc1ncn([C@@H]2O[C@H](CO)[C@@H](O)[C@H]2O)c(=O)n1` [Azacitidine], the “rod outer segment shedding distance Ds” value was 0.08 ± 0.14 um. As for `CCc1cc2c(cc1N1CCC(N3CCOCC3)CC1)C(C)(C)c1[nH]c3cc(C#N)ccc3c1C2=O`, the figure is -0.25 ± 0.14 um; as for `CNS(=O)(=O)CCc1ccc2[nH]cc(C3CCN(C)CC3)c2c1` [Naratriptan], -0.49 ± 0.18 um; as for `COc1ccccc1OCC(O)CO` (centres undefined) [Guaifenesin], -0.29 ± 0.17 um.

As to `O=c1c(-c2ccc(O)cc2)coc2cc(O)ccc12` [Daidzein], the “rod outer segment shedding distance Ds” value is -1.12 ± 0.26 um. As for `C=C1c2cccc(O)c2C(O)=C2C(=O)[C@]3(O)C(O)=C(C(N)=O)C(=O)[C@@H](N(C)C)[C@@H]3[C@@H](O)[C@H]12` [Methacycline HCl], the “rod outer segment shedding distance Ds” value is -0.1 ± 0.18 um. As for `Cc1ccc(-n2[nH]c(C)c(N=Nc3cccc(-c4cccc(C(=O)O)c4)c3O)c2=O)cc1C` [Eltrombopag], the figure is -0.52 ± 0.26 um; as for `C[C@@H](O)[C@H]1C(=O)N2C(C(=O)OCOC(=O)C(C)(C)C)=C(SC3CN(C4=NCCS4)C3)[C@H](C)[C@H]12` [Tebipenem Pivoxil], 0.03 ± 0.35 um.

In the case of `O=[N+]([O-])c1cn2c(n1)OC[C@@H](OCc1ccc(OC(F)(F)F)cc1)C2`, the “rod outer segment shedding distance Ds” value was determined as 0.22 ± 0.26 um.

In the case of `CC(C)[N+]1(C)[C@@H]2CC[C@H]1C[C@@H](OC(=O)C(CO)c1ccccc1)C2` (some centres undefined) [Ipratropium Bromide], the “rod outer segment shedding distance Ds” value was determined as 0.76 ± 0.18 um. For `CC(N)C12CC3CC(CC(C3)C1)C2` (centres undefined) [Rimantadine], the “rod outer segment shedding distance Ds” value is -0.1 ± 0.27 um. For the compound `Cc1cnc(C(=O)NCCc2ccc(S(=O)(=O)NC(=O)NC3CCCCC3)cc2)cn1` [Glipizide], the “rod outer segment shedding distance Ds” value amounted to 0.01 ± 0.15 um.

For the compound `CNC[C@H](O)c1ccc(O)c(O)c1` [Epinephrine HCl], the “rod outer segment shedding distance Ds” value stood at 0.23 ± 0.11 um.

Regarding `COc1cc2nc(N3CCN(C(=O)c4ccco4)CC3)nc(N)c2cc1OC` [Prazosin HCl], the “rod outer segment shedding distance Ds” value was -0.13 ± 0.19 um. Then `O=C(O)Cc1ccccc1Nc1c(Cl)cccc1Cl` [Diclofenac Sodium], with -0.22 ± 0.32 um; and `O=c1c(-c2ccc(O)cc2)coc2c([C@@H]3O[C@H](CO)[C@@H](O)[C@H](O)[C@H]3O)c(O)ccc12` [Puerarin], with -4.75 ± 1.5 um; and `CN(C)/N=N/c1[nH]cnc1C(N)=O` [Dacarbazine], with -1.27 ± 0.34 um. As for `Nc1ccn([C@H]2CC[C@@H](CO)O2)c(=O)n1` [Zalcitabine], the “rod outer segment shedding distance Ds” value was -0.01 ± 0.15 um. As for `CCOC(=O)[C@H](CCc1ccccc1)N[C@@H](C)C(=O)N1Cc2cc(OC)c(OC)cc2C[C@H]1C(=O)O` [Moexipril HCl], the figure is -0.12 ± 0.27 um.

For the compound `COc1ccc(C[C@@H]2c3cc(OC)c(OC)cc3CC[N@+]2(C)CCC(=O)OCCCCCOC(=O)CC[N@@+]2(C)CCc3cc(OC)c(OC)cc3[C@H]2Cc2ccc(OC)c(OC)c2)cc1OC` [Cisatracurium Besylate], the “rod outer segment shedding distance Ds” value turned out to be 0.33 ± 0.22 um.

In the case of `CC[C@H]1OC(=O)[C@H](C)[C@@H](O[C@H]2C[C@@](C)(OC)[C@@H](O)[C@H](C)O2)[C@H](C)[C@@H](O[C@@H]2O[C@H](C)C[C@H](N(C)C)[C@H]2O)[C@](C)(OC)C[C@@H](C)C(=O)[C@H](C)[C@@H](O)[C@]1(C)O` [Clarithromycin], the “rod outer segment shedding distance Ds” value was found to be 0.09 ± 0.13 um. Take `C=CC[N+]1([C@H]2C[C@H]3[C@@H]4CC[C@H]5C[C@H](O)[C@@H](N6CCOCC6)C[C@]5(C)[C@H]4CC[C@]3(C)[C@H]2OC(C)=O)CCCC1` [Rocuronium Bromide]: the “rod outer segment shedding distance Ds” value was -0.06 ± 0.24 um. As to `OC[C@H]1OC(O)[C@H](O)[C@@H](O)[C@@H]1O` (some centres undefined) [Dextrose], the “rod outer segment shedding distance Ds” value is 0.11 ± 0.22 um. Then `Nc1cc(C(Cl)=C(Cl)Cl)c(S(N)(=O)=O)cc1S(N)(=O)=O` [Clorsulon], with -0.08 ± 0.097 um; and `CCCCCCOC(=O)NC(=N)c1ccc(NCc2nc3cc(C(=O)N(CCC(=O)OCC)c4ccccn4)ccc3n2C)cc1` [Dabigatran Etexilate], with 0.66 ± 0.35 um. With `CC(=O)OCC(CCn1cnc2cnc(N)nc21)COC(C)=O` [Famciclovir], the “rod outer segment shedding distance Ds” value stood at 0.36 ± 0.29 um.

As to `CC[C@H](Nc1ncnc2[nH]cnc12)c1nc2cccc(F)c2c(=O)n1-c1ccccc1` [CAL-101 (Idelalisib, GS-1101)], the “rod outer segment shedding distance Ds” value is -0.19 ± 0.29 um.

Consider `COC(=O)/C=C/C(=O)OC` [Dimethyl Fumarate], for which the “rod outer segment shedding distance Ds” value is -0.28 ± 0.16 um.

`COc1ccc2[nH]c([S+]([O-])Cc3ncc(C)c(OC)c3C)nc2c1` (centres undefined) [Omeprazole]: the “rod outer segment shedding distance Ds” value was -0.74 ± 0.26 um. Then `O=C1NC(=O)/C(=C/c2ccc(-c3ccc(F)cc3O)o2)S1`, with -0.8 ± 0.13 um; and `C[C@H](NC(=O)Cc1cc(F)cc(F)c1)C(=O)N[C@H](C(=O)OC(C)(C)C)c1ccccc1`, with -1.73 ± 0.4 um; and `CCN1CCN(C(=O)N[C@@H](C(=O)N[C@@H]2C(=O)N3C(C(=O)O)=C(CSc4nnnn4C)CS[C@H]23)c2ccc(O)cc2)C(=O)C1=O` [Cefoperazone], with 0.3 ± 0.16 um. As for `O=c1[nH]cnc2c1ncn2[C@@H]1O[C@H](CO)[C@@H](O)[C@H]1O` [Inosine], the figure is -0.24 ± 0.32 um. In the case of `CCc1cc(Nc2nccc(-c3c(-c4ccc(OC)c(C(=O)Nc5c(F)cccc5F)c4)nc4ccccn34)n2)c(OC)cc1N1CCC(N2CCN(S(C)(=O)=O)CC2)CC1`, the “rod outer segment shedding distance Ds” value is -0.02 ± 0.22 um. As for `C[S+]([O-])c1ccc(-c2nc(-c3ccc(F)cc3)c(-c3ccncc3)[nH]2)cc1` (centres undefined), the figure is 0.48 ± 0.25 um; as for `CC[C@H](/C=C/[C@@H](C)[C@H]1CC[C@H]2[C@@H]3CC=C4C[C@@H](O)CC[C@]4(C)[C@H]3CC[C@]12C)C(C)C` [Stigmasterol], -0.14 ± 0.3 um; as for `CN1CC(=O)N2[C@H](c3ccc4c(c3)OCO4)c3[nH]c4ccccc4c3C[C@@H]2C1=O` [Tadalafil], 0.35 ± 0.17 um. Then `CC(C(=O)O)c1cccc(C(=O)c2ccccc2)c1` (centres undefined) [Ketoprofen], with 0.32 ± 0.15 um.
